Literature values as cited in US20120128740A1, “NANOSTRUCTURED […] BASE, ITS PHARMACEUTICALLY ACCEPTABLE SALTS AND CO-CRYSTALS, COMPOSITIONS OF THEM, PROCESS FOR THE PREPARATION THEREOF AND PHARMACEUTICAL COMPOSITIONS CONTAINING THEM” (priority 2009, published 2012).
At least one read-out could not be matched to a standard name with certainty.

Conditions: oral; cited from earlier work

CCCc1nn(C)c2c(=O)[nH]c(-c3cc(S(=O)(=O)N4CCN(C)CC4)ccc3OCC)nc12.O=C(O)CC(O)(CC(=O)O)C(=O)O [Sildenafil citrate, 1-[[3-(6,7-dihydro-1-methyl-7-oxo-3-propyl-1H-pyrazolo[4,3-d]pyrimidin-5-yl)-4-ethoxyphenyl]sulfonyl]-4-methylpiperazine citrate]
effect of food on AUC: does not affect
time of peak plasma concentrations (cmax): ≤ 1 h
